The subject of the experiment is S. aureus virulent CVCC546. Nature of the experiment: MIC in MHB at pH 7.3 and 5.0. The note with it: Staphylococcus aureus. Type of experiment: cell-based. The text has this:
The cleavable cathepsin sites in the peptides were predicted by the SitePrediction website (http://www.dmbr.ugent.be/prx/bioit2-public/SitePrediction/)[55].

Converted amounts (≈) assume the structure as drawn. Where two headings read alike, the source gives them in different places.

`CN[C@H](CC(C)C)C(=O)N[C@H]1C(=O)N[C@@H](CC(N)=O)C(=O)N[C@H]2C(=O)N[C@H]3C(=O)N[C@H](C(=O)N[C@H](C(=O)O)c4cc(O)cc(O)c4-c4cc3ccc4O)[C@H](O)c3ccc(c(Cl)c3)Oc3cc2cc(c3O[C@@H]2O[C@H](CO)[C@@H](O)[C@H](O)[C@H]2O[C@H]2C[C@](C)(N)[C@H](O)[C@H](C)O2)Oc2ccc(cc2Cl)[C@H]1O` [Vancomycin]: the MIC runs as follows: (pH 5, read-out: MICs) 1 µg/mL (≈ 0.69 µM); (pH 7.3, read-out: MICs) 1 µg/mL (≈ 0.69 µM).

The values are drawn from paper PMC5844868, “Increased intracellular activity of MP1102 and NZ2114 against Staphylococcus aureus in vitro and in vivo” (Scientific Reports, 2018).
